Test system: gene expression in BM cells
Assay: Gene expression profiling (Affymetrix GeneChip) of erythroid progenitors
Assay type: cell-based, human
Conditions: 1 μM, day 5, CS1; absolute fold change greater than 1.5, P-value less than 0.025
Method: BM cells were cultured in CS1 expansion media for 7 days, and then shifted to CS1 differentiation media containing vehicle or 1 μM ACY-957 for 5 days. Total RNA was isolated from cells at day 5 of differentiation using RNeasy Micro Kit with on-column DNase digestion (Qiagen). This experiment was performed in triplicate using cells from three independent donors on separate days to obtain vehicle treated (n = 3) and ACY-957 treated (n = 3) samples for GeneChip analysis. GeneChip sample preparation, hybridization, and data acquisition was performed by the Covance Genomics Laboratory (Seattle, WA) using Affymetrix GeneChip PrimeView™ Human Gene Expression Array according to manufacturer’s protocol. […] For the analysis of HDAC1 or HDAC2 knockdown in erythroblasts, raw gene expression data was downloaded from NCBI GEO website, series GSE22366 [21].
Data analysis was performed using BRB-ArrayTools. GSE60791 and GSE22366 data series were imported and analyzed independently. Raw data CEL files were processed with the robust multi-chip average (RMA) algorithm. Fold changes were derived from the geometric mean of intensity values in each treatment class. In the case of GSE60791, P-values were generated between ACY-957 and vehicle treated samples using a paired t test with random variance model applied. […]

Nc1ccc(-c2cccs2)cc1NC(=O)c1ccc2nc(N3CCNCC3)ccc2c1 [ACY-957]
number of genes induced (Up-regulated): 1294
number of genes suppressed (Down-regulated): 681

From paper PMC4830539, “Chemical Inhibition of Histone Deacetylases 1 and 2 Induces Fetal Hemoglobin through Activation of GATA2” (PLoS ONE, 2016)
